Measurements as given in patent publication US20040253576A1 (priority 2003, published 2004).
At least one structure is not confirmed: it was looked up by name or label, or the drawing left a doubt.

System: MSNs from the NAcb shell
Experiment: latency to firing the first action potential during prolonged depolarization
Format: cell-based, Sprague-Dawley rats

Structure (SMILES): C=C[C@@]1(C)CC(=O)[C@]2(O)[C@@]3(C)[C@@H](O)CCC(C)(C)[C@@H]3[C@H](O)[C@H](OC(C)=O)[C@@]2(C)O1 [forskolin]
- effect on latency to fire: significant reduction in latency to fire
